The results in this text go back to PubChem BioAssay AID1347426 (Functional Genomics Laboratory (NCATS/FGL), 2020).

Out of some 31,000 sequences screened, about 1,400 (4.5%) were called active.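 The calls were made as follows: active = median seed-adjusted z-score above 1 or below -1; inactive = the rest.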 Some of the results follow.

The test can be described thus: Novel Modifiers of Survival Motor Neuron (SMN) Protein: Gene Identification via Genome-wide siRNA Screen.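 Also: luminescence tracks full-length SMN protein made from the SMN2 reporter.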 As to conditions: HEK293T SMN2-luciferase reporter, siRNA knockdown, 72 h; actives lie on both sides. Summed up:
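siRNA screen, 10418 genes ×3 siRNAs; 1 pmol/well, lipid reverse transfection into HEK293T SMN2-luc reporter line. 72 h, 37 °C, 5% CO2; ONE-Glo readout. Data: neg-ctrl normalized, log10, MAD; hit = MAD >1.0 or < -1.0.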
GUAUGAAGAUGAAUAAGGATT against ROCK1: the median seed-adjusted z-score is inactive: -0.306.
The value for GACCCAUUGCUGUCCAACATT against EMID1 was inactive: 0.979; that for CGGUGUACCGCAUCUUUAATT against 4-Mar was inactive: 0.168.
For GCGUGGCUCUGUUACUACATT against PPY, the median seed-adjusted z-score is inactive: -0.0804.
As for CCUAUUAAGUGUAAUCUCATT against UBE2R2, the median seed-adjusted z-score is inactive: 0.
The value for GUGCUAAAUUUAGCUCAAATT against IL2 was inactive: 0.0694; that for GUUGAAAGGUGAUGACCUUTT against HNRNPCL1 was inactive: 0.
The value for GCAAGAUAGCUCAACCCAATT against ADAMTS12 was inactive: -0.0721; that for ACUGGACUCCGUUUCUUAATT against GPLD1 was inactive: 0.0152; that for GAAUAAACAUUCAUAGUGATT against SRD5A2 was inactive: 0.185.
Regarding CCAAUAACGCAGAUAGGUUTT against CATSPER1, the median seed-adjusted z-score is inactive: 0.655.
Consider ACAUCAAGUGGAUGACUCATT against AKAP14, for which the median seed-adjusted z-score is inactive: 0.136.
The result for GCUCUAAGUUUUACGGAAATT against CFI reads inactive: -0.596.
Take CUACUUCAUUGCUAAAAAUTT against GRPR: the median seed-adjusted z-score was inactive: 0.121.
For the sequence CUAUAAAUGUCAACAAUGUTT against ZNF75D, the median seed-adjusted z-score was inactive: 0.
The result for GAUGAUACCAGGCAUAUAATT against USP15 reads inactive: -0.405; that for GGAGGAGACUGUCCGUAUUTT against LPP, inactive: -0.103.
On to AAAUCGCGACGACUAAAUATT against CCBE1, for which the median seed-adjusted z-score was inactive: 0.964.
The value for CUAUUCUAGUGAUAGGAUUTT against SORBS2 was inactive: 0.0391.
The result for GCUAACGACAAAUACGAGATT against TCF21 reads inactive: -0.15; that for GGGAGAUGCAGCUCUCAGATT against VENTX, inactive: 0.669; that for CUGCCGACAUGAUCAAGGATT against CYB5R2, inactive: -0.403.
As to AAAUACGGGUGGAGAUCAATT against WIZ, the median seed-adjusted z-score was inactive: 0.282.
The result for AGCUUAUGCAUUUGGCAAATT against APBA3 reads inactive: -0.119; that for GCAGAGUCGAGUGAAGACATT against FDXR, inactive: 0.6.
Regarding UGCUUUAUAUGCUCAAGAATT against PNPLA6, the median seed-adjusted z-score was inactive: 0.309.
The result for GAUUUAAACGAGAUUUACATT against SP140 reads inactive: 0.186; that for AGUGCAGUUUCAAUCAGAATT against FXYD6, inactive: -0.214; that for GCACUGAUGGGCUCACAUATT against SPINK4, inactive: -0.0134.
The value for GACCGUUGCUGUACUUACATT against EPM2A was inactive: 0.319.
The result for AGGUGACUGACAUCAGUGATT against ERF reads inactive: -0.0288; that for GGAGUUCGUUCAGAGACCATT against MOCS2, inactive: 0.0327.
Regarding GGACGGAAGCGAAAAUCGATT against KAT5, the median seed-adjusted z-score was inactive: 0.32.
The result for AGUCUUCGCAGAUUAUGAATT against PYGM reads inactive: -0.0689.
The result for CUAAGAGGAUUGAGGUAGATT against ZNF747 reads inactive: 0.379; that for GAAUAACCCAGACUAGGAATT against GPR125, inactive: 0.516.
The result for AGUACUGCGUGAAGACCAATT against CDC34 reads inactive: 0; that for CCUCGGUACUGGUCUUCAUTT against LRFN3, inactive: 0.483; that for AAAUCGUGAUAGUUGACUATT against NANOS2, inactive: 0.565.
Take GCUCCCAGCUUAUAUGGAUTT against COX4I1: the median seed-adjusted z-score is inactive: -0.39.
The result for CCAAGACUCCAACCAUUUUTT against IKZF4 reads inactive: -0.426; that for GUCUCGGGCUAUUUCGUUATT against TMED2, inactive: 0.288; that for CAGCAGAGCCGAUCCAAGATT against GPR37L1, inactive: -0.0348.
The value for CCCGUGCCUUGAAGGAUGATT against CADM4 was inactive: 0.16; that for GGAGGACUCAGACCACGAUTT against COMP was inactive: 0.331.
The value for GCCUCAGUUUGAAAUUGUUTT against TBRG1 was active: -1.47.
Take AGAUCAACAGCUCCGCCUATT against AIFM2: the median seed-adjusted z-score is inactive: -0.106.
The result for UUAUCUCCAUGAACCUGUATT against BDKRB2 reads inactive: -0.311; that for CACGUAAUGUGGAAAAGCATT against ZNF19, inactive: 0.
For CGAUGUACUCUGUCCCGAATT against MYO9B, the median seed-adjusted z-score was inactive: -0.0287.
The result for GGUUGAUUCUGGUCGUCGATT against ACADM reads inactive: 0.127; that for CUGCUUGGACUGUAAGAAATT against RFFL, inactive: -0.437.
Take CUACAUGACUGAAAGUACUTT against BAG4: the median seed-adjusted z-score was inactive: 0.111.
The result for CAAGCGGACCAGGACCUAUTT against CSDC2 reads inactive: -0.321.
The result for CCGCCUGCCUUUAAAUCCATT against CEBPB reads inactive: -0.748.
The result for AAGCUAUACUGAUUAGAAATT against TGFA reads inactive: -0.22.
With CAACUACAACUGUGAGAUUTT against SF3A3, the median seed-adjusted z-score was active: -2.1.
The value for GGAAGUAUUUCACGAAUUATT against HERC4 was inactive: 0.00343; that for GGCCUUCAGAGUACACUAATT against SYTL4 was inactive: 0.694; that for GCAGCAUUCAGUUCACUAATT against SLC4A9 was inactive: 0.
The value for CGGAAGGUGUAUGAACUGATT against ICAM1 was inactive: 0.345; that for GGAAUUGUGACGAUCCUCATT against SEC11A was inactive: -0.494.
The value for GCUCUCACCUUAAUCGACATT against ZNF187 was inactive: 0.419; that for GAAAGUGAUUGACCGAAAATT against TRIT1 was inactive: 0.794; that for CGUUACCUCUGGUGACUGUTT against SLC7A13 was inactive: 0.121.
GAAGCAGGGUUAAAGCGGATT against PRDM2: the median seed-adjusted z-score was active: 1.12.
In the case of GGAUGAUGUAGUACGUAAATT against MPHOSPH10, the median seed-adjusted z-score is inactive: 0.374.
The value for CCUCUGCUGACCUACCAAATT against ADAT2 was inactive: 0.604.
The value for GGGCUACCAUCUCCUUUCATT against SLC23A3 was inactive: -0.254; that for CGAGGAAUGCUAGAUCACATT against SLITRK3 was inactive: -0.564; that for CCAGGAUCCGGAUUCUGAATT against BPIL1 was inactive: 0.261.
In the case of GAAUCUCCAGGGUUAUGAUTT against STRADA, the median seed-adjusted z-score was inactive: 0.415.
The value for GAUGCUACCCUAUACGAGATT against TTC33 was inactive: 0.104; that for GCCUAUCCUAGAACCAUCATT against KLK14 was inactive: -0.0998.
In the case of CACUGGAAGCAGUAACUUUTT against BACE2, the median seed-adjusted z-score was inactive: 0.0853.
For GGUUUAACGUGUACAACAATT against PCBD1, the median seed-adjusted z-score was inactive: 0.
The value for CAAAAGUGUAUAUAAACUUTT against NDUFS6 was inactive: -0.0128; that for GAUACUACCUGGACACCGATT against FHOD1 was inactive: -0.114; that for GAAGAACUCGAAUAUGUCATT against ASNSD1 was inactive: 0.437.
The value for CCAUGAACAUCGAUCGCAATT against EHMT2 was inactive: 0.295; that for AGUGAAAAGCGGUGAAGAATT against SLC14A2 was inactive: 0.00107.
The value for CUAUUGGACAUAAUAGACATT against TYRP1 was inactive: 0.173.
With GGAAUGUGGUAACAGGAGATT against GMPR2, the median seed-adjusted z-score was inactive: 0.232.
The result for GGUACUUAUGGGAUGCUCATT against NEUROD4 reads inactive: 0.0349; that for GGAUCAUCAUCUGCAAUCATT against VHLL, inactive: -0.0852.
For the sequence GCUGGAACUAUUAUCGUUATT against DNAJC10, the median seed-adjusted z-score is inactive: 0.0527.
The result for CUCGACAAAUGGUCCUGUATT against ZNF598 reads inactive: -0.303; that for UGAGCAUGACUGAUUCCAATT against SFTPD, inactive: 0.289; that for CAGUCACAUCAGCAGGUCATT against SYT3, inactive: 0.221.
The result for GCUCCUUGCUUGCAUCCAUTT against MC4R reads inactive: 0.154; that for GGAUGAAAGCAAUCUGAGATT against ACP1, inactive: -0.277.
Consider GGAAGUCAGCACUUACAUUTT against EEF1A1, for which the median seed-adjusted z-score is inactive: -0.755.
On to CAGCAAAGAUUUCCGUGAATT against ZFP161, for which the median seed-adjusted z-score was inactive: 0.154.
Take GGAUCAUUGUGAAGCAGCUTT against PARVB: the median seed-adjusted z-score was inactive: -0.0102.
The result for GUGACCAUCUUGGACAUUATT against CELSR1 reads inactive: -0.466; that for GCUUUGAGAGUGCCUCUGATT against REM1, inactive: 0.231.
The result for GGAGUAGAUGAAAACGAAATT against TLN2 reads inactive: -0.0106; that for CAUCUACACUUUCUCUAAATT against TRIM6, inactive: -0.137.
The value for GGCAGGAAGUCAAACCUAUTT against KLK2 was inactive: 0.0716; that for GUUUUGACCCUAUAGUUUATT against P2RY5 was inactive: 0.0278.
GCAUCUACUUUGACCGGGATT against PISD: the median seed-adjusted z-score is inactive: 0.231.
The result for CCGAAGACCUGUACCAGAATT against HLCS reads inactive: 0.0646; that for CAAAUAUGAUGGACAUAGATT against LOXL3, inactive: 0.517.
The value for GGAGGUCACCGUUUGGGAUTT against DOC2B was inactive: -0.423; that for GGUUAUCUGUGAAGAGACUTT against ZNF784 was inactive: 0.291; that for CAGAAUAAAUCACACCCUATT against INSL3 was inactive: -0.037.
The value for CAGUCGACAUACUCGGAUATT against AKAP8L was inactive: -0.334.
